PubChem BioAssay AID743121 | NCATS, 2013
Shown is a random part of about 26,000 deposited reagents. 167 of all reagents (0.63%) were called active. 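Calls are per gene from RSA p-values that are not deposited; an individual active-marked siRNA can sensitise only weakly.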 The numbers tell different reagents against one gene apart. Not all columns of the deposit are shown.

Screen: 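Partners whose loss is lethal together with topoisomerase I blockade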 (primary screen)
Cells: MDA-MB-231 cells, a human breast cancer line
Knock-down reagent: single siRNA against human genes, 20 nM siRNA (0.8 pmol per well)
Time to read-out: 120 h (drug added 48 h after transfection, read 72 h later)
Conditions: camptothecin 20 nM (about EC30) for 72 h; vehicle 0.1% DMSO in parallel plates
Measured: 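Cell viability by ATP luminescence (CellTiter-Glo) as % of non-targeting siRNA wells, and the log2 ratio of viability without drug over viability with camptothecin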
Scale: log2 vehicle/camptothecin viability: higher = stronger sensitisation to camptothecin
Call rule: 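Active genes have an RSA gene-level p-value below 0.001, computed from the ratios of their separate siRNAs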

log2 vehicle/camptothecin viability, by target gene and reagent
ABCF2 (GeneID 10061): #1 0.26 inactive; #2 0.105 inactive; #3 0.315 inactive; #4 -0.362 inactive
RGR (GeneID 5995): #1 -0.318 inactive; #2 -0.211 inactive; #3 -0.0879 inactive; #4 -0.355 inactive
IFNK (GeneID 56832): #1 -0.023 inactive; #2 -0.596 inactive; #3 -0.187 inactive; #4 -0.379 inactive
KIFC2 (GeneID 90990): #1 -0.215 inactive; #2 -0.888 inactive; #3 0.328 inactive; #4 0.148 inactive
DLK1 (GeneID 8788): #1 -0.0769 inactive; #2 -0.349 inactive; #3 -0.255 inactive
NOS1 (GeneID 4842): #1 -0.0696 inactive; #2 0.384 inactive; #3 -0.346 inactive
PTPDC1 (GeneID 138639): #1 -0.544 inactive; #2 -0.467 inactive; #3 -0.174 inactive; #4 -0.196 inactive
SCN7A (GeneID 6332): #1 -0.0415 inactive; #2 0.0248 inactive; #3 -0.00806 inactive; #4 0.00702 inactive
CACNA2D4 (GeneID 93589): #1 -0.253 inactive; #2 -0.126 inactive; #3 0.226 inactive; #4 0.0896 inactive
PACSIN2 (GeneID 11252): #1 0.448 inactive; #2 -0.43 inactive; #3 0.152 inactive; #4 0.108 inactive
PKIA (GeneID 5569): #1 0.145 inactive; #2 -0.695 inactive; #3 0.0951 inactive; #4 0.0623 inactive
CENPU (GeneID 79682): #1 0.436 inactive; #2 -0.0725 inactive; #3 -0.0516 inactive

Targets above whose target name starts with S or s:
log2 vehicle/camptothecin viability, by target gene and reagent
SCN7A (GeneID 6332): #1 -0.0415 inactive; #2 0.0248 inactive; #3 -0.00806 inactive; #4 0.00702 inactive

Continued:
log2 vehicle/camptothecin viability, by target gene and reagent
SH3BP2 (GeneID 6452): #1 -0.228 inactive; #2 0.583 inactive; #3 -0.306 inactive
NTN1 (GeneID 9423): #1 0.286 inactive; #2 -0.258 inactive; #3 -0.247 inactive; #4 -0.612 inactive
SLC10A1 (GeneID 6554): #1 -0.0172 inactive; #2 -0.166 inactive; #3 0.273 inactive; #4 -0.142 inactive
MPL (GeneID 4352): #1 -0.302 inactive; #2 0.161 inactive; #3 -0.143 inactive; #4 -0.0709 inactive
BLK (GeneID 640): #1 -0.246 inactive; #2 -0.41 inactive; #3 -0.354 inactive; #4 -0.169 inactive
LHX5 (GeneID 64211): #1 -0.287 inactive; #2 -0.368 inactive; #3 -0.137 inactive; #4 -0.111 inactive
CHM (GeneID 1121): #1 0.603 inactive; #2 0.032 inactive; #3 0.79 inactive; #4 -0.426 inactive
SRPRA (GeneID 6734): #1 -0.351 inactive; #2 -0.621 inactive; #3 -0.553 inactive
CYP2C8 (GeneID 1558): #1 -0.384 inactive; #2 0.12 inactive; #3 -0.0888 inactive; #4 -0.0742 inactive
PLAAT4 (GeneID 5920): #1 -0.291 inactive; #2 -0.245 inactive; #3 -0.0313 inactive; #4 -0.323 inactive
GALR2 (GeneID 8811): #1 -0.225 inactive; #2 0.00144 inactive; #3 -0.304 inactive; #4 -0.475 inactive
